# The list is a part of this screen's results and no random one: it gathers tests that were run many times, whatever their T/C, doses with no T/C, and many T/C values between a quarter and a half above the control. Other doses and runs of a compound stand elsewhere. T/C gives the treated animals as a percentage of the vehicle group. Some entries give survivors of the animals treated and no T/C: the source holds a T/C of zero for them, seemingly a mark for toxic or unscored doses. Some survivor counts are full or nearly so, which does not show that the dose was tolerated: survival well below the control is almost never listed, so the zero probably covers shortened survival too. Counts of survivors are from the toxicity check (mostly the fifth day) where no day follows; animals may have died later. Schedules are NCI's codes, read here as Q, the interval in days (D) or hours (H), X, the number of doses. Some entries were tested several times; the results are listed from low to high. For survival time, this PubChem deposit counts one and a half times the control or more as active, and values a quarter to a half above the control carry no call in these data; other NCI protocols may use other cut-offs. Some T/C values are followed by the survivors on the day toxicity was checked, most often the fifth; without a count, all were alive then.
# Test system: P388 leukemia ip, CD2F1 mice, survival T/C
# Assay: NCI In Vivo Anticancer Drug Screen. Data for tumor model P388 Leukemia (intraperitoneal) in CD2F1 (CDF1) mice
# Conditions: T/C endpoint: median survival time, higher T/C = longer survival
# [1] = dose: 400.0 mg/kg/injection, schedule: Q04DX003 (ip), vehicle: saline with Tween-80
# [2] = dose: 12.5 mg/kg/injection, schedule: Q01DX009 (ip), vehicle: saline with Tween-80
# [3] = dose: 200.0 mg/kg/injection, schedule: Q01DX009 (ip), vehicle: saline
# [4] = dose: 100.0 mg/kg/injection, schedule: Q01DX009 (ip), vehicle: saline
# [5] = dose: 120.0 mg/kg/injection, schedule: Q01DX005 (ip), vehicle: saline with Tween-80
# [6] = dose: 240.0 mg/kg/injection, schedule: Q01DX005 (ip), vehicle: saline with Tween-80
smiles,measurement,setting,value
CN=c1s[se]c2ccccc12,survivor count,"dose: 50.0 mg/kg/injection, schedule: Q01DX009 (ip), vehicle: Klucel (hydroxypropylcellulose) (HPC)",0 of 6 and 3 of 6
same,survivor count,"dose: 100.0 mg/kg/injection, schedule: Q01DX009 (ip), vehicle: Klucel (hydroxypropylcellulose) (HPC)",0 of 6
same,survivor count,"dose: 200.0 mg/kg/injection, schedule: Q01DX009 (ip), vehicle: Klucel (hydroxypropylcellulose) (HPC)",0 of 6
CS(=O)(=O)c1nnnn1-c1ccccc1,survivor count,"dose: 100.0 mg/kg/injection, schedule: Q04DX003 (ip), vehicle: saline with Tween-80",4 of 6
same,survivor count,"dose: 200.0 mg/kg/injection, schedule: Q04DX003 (ip), vehicle: saline with Tween-80",1 of 6
same,survivor count,[1],0 of 6
CC1CCC=CC(=O)C1 (configuration not stated),survivor count,"dose: 400.0 mg/kg/injection, schedule: Q04DX003 (ip), vehicle: Klucel (hydroxypropylcellulose) (HPC)",0 of 6
CCOc1ccc2c(ccc(/C=C\c3cc(C)c4cccnc4c3O)[n+]2C)c1,T/C,[2],135 % of control
same,survivor count,[2],6 of 6
same,survivor count,"dose: 25.0 mg/kg/injection, schedule: Q01DX009 (ip), vehicle: saline with Tween-80",4 of 6
same,survivor count,"dose: 50.0 mg/kg/injection, schedule: Q01DX009 (ip), vehicle: saline with Tween-80",2 of 6
COC(=O)C1(C)CCCC2(C)C1CCC13C=C(C(C)C)C(CC1C(=O)O)CC23 (configuration not stated),survivor count,[1],2 of 6
COc1cccc2c1C(=O)c1c(O)c3c(c(O)c1C2=O)C[C@@](O)(/C(C)=N\O)C[C@@H]3OC1CC(N)C(O)C(C)O1 (some centres not stated),T/C,"dose: 25.0 mg/kg/injection, schedule: Q04DX003 (ip), vehicle: water",127 % of control
same,survivor count,"dose: 50.0 mg/kg/injection, schedule: Q01DX009 (ip), vehicle: water",6 of 6
same,T/C,"dose: 50.0 mg/kg/injection, schedule: Q04DX003 (ip), vehicle: water, evaluated on day 30",127 % of control
same,T/C,"dose: 50.0 mg/kg/injection, schedule: Q04DX003 (ip), vehicle: water, evaluated on day 45",126 % of control
same,T/C,"dose: 100.0 mg/kg/injection, schedule: Q04DX003 (ip), vehicle: water",126 % of control [5 of 6 alive]
same,survivor count,"dose: 200.0 mg/kg/injection, schedule: Q04DX003 (ip), vehicle: water",1 of 6
CCN(CC)CCCCCCCCOC(=O)c1cc(OC)c(OC)c(OC)c1,survivor count,"dose: 120.0 mg/kg/injection, schedule: Q01DX005 (ip), vehicle: saline",0 of 6
same,survivor count,"dose: 240.0 mg/kg/injection, schedule: Q01DX005 (ip), vehicle: saline",0 of 6
Cc1cccc(C)c1OC(=S)SSC(=S)Oc1c(C)cccc1C,survivor count,"dose: 400.0 mg/kg/injection, schedule: Q01DX001 (ip), vehicle: Klucel (hydroxypropylcellulose) (HPC)",6 of 6
C=C1C(O)C2(O)OCC34C(CC5C(C)=CC(=O)C(O)C5(C)C23)OC(=O)C(OC(=O)C(C)(O)CC)C14 (configuration not stated),T/C,"dose: 0.5 mg/kg/injection, schedule: Q01DX009 (ip), vehicle: saline + alcohol",126 % of control
same,T/C,"dose: 1.0 mg/kg/injection, schedule: Q01DX009 (ip), vehicle: saline + alcohol",128 and 146 % of control [5 of 6 alive]
same,T/C,"dose: 2.0 mg/kg/injection, schedule: Q01DX009 (ip), vehicle: saline + alcohol",128 % of control
same,survivor count,"dose: 3.0 mg/kg/injection, schedule: Q01DX009 (ip), vehicle: saline + alcohol",4 of 6
same,survivor count,"dose: 4.0 mg/kg/injection, schedule: Q01DX009 (ip), vehicle: saline + alcohol",0 of 6
same,survivor count,"dose: 8.0 mg/kg/injection, schedule: Q01DX009 (ip), vehicle: saline + alcohol",0 of 6
same,survivor count,"dose: 16.0 mg/kg/injection, schedule: Q01DX009 (ip), vehicle: saline + alcohol",0 of 6
C[n+]1ccc(/C=C/c2ccccc2O)cc1,survivor count,[3],0 of 6
CCN(CC)[P+](c1ccccc1O)(N(CC)CC)N(CC)CC,survivor count,"dose: 6.25 mg/kg/injection, schedule: Q01DX009 (ip), vehicle: saline",1 of 6 and 5 of 6
same,survivor count,"dose: 12.5 mg/kg/injection, schedule: Q01DX009 (ip), vehicle: saline",0 of 6
same,survivor count,"dose: 25.0 mg/kg/injection, schedule: Q01DX009 (ip), vehicle: saline",0 of 6
same,survivor count,"dose: 50.0 mg/kg/injection, schedule: Q01DX009 (ip), vehicle: saline",0 of 6
same,survivor count,[4],0 of 6
same,survivor count,[3],0 of 6
same,survivor count,"dose: 400.0 mg/kg/injection, schedule: Q01DX009 (ip), vehicle: saline",0 of 6
COC1=C(N)C(=O)c2nc(-c3nc(C=O)c(C)c(-c4ccc(OC)c(OC)c4O)c3N)ccc2C1=O,T/C,"dose: 2.48 mg/kg/injection, schedule: Q01DX009 (ip), vehicle: other, evaluated on day 5",127 % of control
same,T/C,"dose: 2.48 mg/kg/injection, schedule: Q01DX009 (ip), vehicle: other, evaluated on day 23",128 % of control [7 of 8 alive]
same,survivor count,"dose: 3.03 mg/kg/injection, schedule: Q01DX009 (ip), vehicle: DMSO",8 of 8
same,T/C,"dose: 3.05 mg/kg/injection, schedule: Q01DX009 (ip), vehicle: DMSO",128 % of control
same,T/C,"dose: 3.05 mg/kg/injection, schedule: Q01DX009 (ip), vehicle: other",128 % of control
same,T/C,"dose: 3.72 mg/kg/injection, schedule: Q01DX009 (ip), vehicle: other, evaluated on day 5",127 % of control
same,T/C,"dose: 3.72 mg/kg/injection, schedule: Q01DX009 (ip), vehicle: other, evaluated on day 23",128 % of control
same,survivor count,"dose: 12.4 mg/kg/injection, schedule: Q01DX009 (ip), vehicle: other",7 of 8
CN(C)/N=C1/CCCCC1C(O)(c1ccccc1)c1ccccc1 (configuration not stated),survivor count,[5],5 of 6
same,survivor count,[6],0 of 6
COc1cccc2c1C(=O)c1c(O)c3c(c(O)c1C2=O)C[C@@](O)(/C(CO)=N/NC(=O)c1ccc(Cl)c(Cl)c1)C[C@@H]3OC1CC(NC(=S)Nc2ccc(F)cc2)C(O)C(C)O1 (some centres not stated),survivor count,"dose: 1.56 mg/kg/injection, schedule: Q01DX009 (ip), vehicle: water",6 of 6
same,T/C,"dose: 1.6 mg/kg/injection, schedule: Q01DX009 (ip), vehicle: water",127 % of control
same,survivor count,"dose: 3.13 mg/kg/injection, schedule: Q01DX009 (ip), vehicle: water",6 of 6
same,survivor count,"dose: 6.25 mg/kg/injection, schedule: Q01DX009 (ip), vehicle: water",6 of 6
O=C1C2OC2C(O)(CCN(Cc2ccc3c(c2)OCO3)C(=O)C(F)(F)F)C2OC12 (configuration not stated),survivor count,"dose: 100.0 mg/kg/injection, schedule: Q01DX001 (ip), vehicle: saline",0 of 6
same,survivor count,"dose: 200.0 mg/kg/injection, schedule: Q01DX001 (ip), vehicle: saline",0 of 6
same,survivor count,"dose: 400.0 mg/kg/injection, schedule: Q01DX001 (ip), vehicle: saline",1 of 6
c1ccc2c(c1)ccc1c[n+]3ccccc3cc12,survivor count,"dose: 5.0 mg/kg/injection, schedule: Q04DX003 (ip), vehicle: other",3 of 6
same,survivor count,"dose: 10.0 mg/kg/injection, schedule: Q04DX003 (ip), vehicle: other",0 of 6
same,survivor count,"dose: 20.0 mg/kg/injection, schedule: Q04DX003 (ip), vehicle: other",0 of 6
CCN(CC)CCCN(C)Cc1c(-c2ccccc2)oc(-c2ccccc2)c1Cl,survivor count,"dose: 100.0 mg/kg/injection, schedule: Q01DX005 (ip), vehicle: saline with Tween-80",0 of 5
same,survivor count,"dose: 200.0 mg/kg/injection, schedule: Q01DX005 (ip), vehicle: saline with Tween-80",0 of 5
COc1cccc2c1C(=O)c1c(O)c(CCl)cc(O)c1C2=O,survivor count,"dose: 60.0 mg/kg/injection, schedule: Q01DX005 (ip), vehicle: saline with Tween-80",4 of 6
same,survivor count,[5],0 of 6
same,survivor count,[6],0 of 6
Cc1ccc(S(=O)(=O)Nc2ccc3ncccc3c2)cc1,survivor count,[1],1 of 6
Cc1cccc([NH-])n1.Cc1cccc([NH-])n1.Cc1cccc([NH-])n1.Cc1cccc([NH-])n1.[Cl][Rh][Cl],survivor count,[4],5 of 6
same,survivor count,[3],0 of 6
C=CCc1ccc(OCCOC(=O)Nc2cccc(SC)c2)c(OC)c1,survivor count,"dose: 50.0 mg/kg/injection, schedule: Q01DX009 (ip), vehicle: DMSO",6 of 6
same,survivor count,"dose: 100.0 mg/kg/injection, schedule: Q01DX009 (ip), vehicle: DMSO",6 of 6
same,survivor count,"dose: 200.0 mg/kg/injection, schedule: Q01DX009 (ip), vehicle: DMSO",2 of 6

# Reference: PubChem BioAssay AID330 (DTP/NCI, 2004)
